{
  "source": "ChEMBL document CHEMBL5046241",
  "about": "“The novel therapeutic strategy of vilazodone-donepezil chimeras as potent triple-target ligands for the potential treatment of Alzheimer's disease with comorbid depression” (Eur J Med Chem, 2022)",
  "assay": "in vitro",
  "details": "PAMPA",
  "data": [
    {"smiles": "COc1cc2c(cc1OC)C(=O)C(CC1CCN(Cc3ccccc3)CC1)C2", "note": "(stereo unspecified) [DONEPEZIL]", "values": [
      {"measurement": "Papp", "value": 2.1, "unit": "×10⁻⁶ cm/s"}
    ]}
  ]
}
